The assay addresses T1, 15-lipoxygenase-2 (rat (endogenous in PASMCs)) (UniProt Q8K4F2).
T1 sequence: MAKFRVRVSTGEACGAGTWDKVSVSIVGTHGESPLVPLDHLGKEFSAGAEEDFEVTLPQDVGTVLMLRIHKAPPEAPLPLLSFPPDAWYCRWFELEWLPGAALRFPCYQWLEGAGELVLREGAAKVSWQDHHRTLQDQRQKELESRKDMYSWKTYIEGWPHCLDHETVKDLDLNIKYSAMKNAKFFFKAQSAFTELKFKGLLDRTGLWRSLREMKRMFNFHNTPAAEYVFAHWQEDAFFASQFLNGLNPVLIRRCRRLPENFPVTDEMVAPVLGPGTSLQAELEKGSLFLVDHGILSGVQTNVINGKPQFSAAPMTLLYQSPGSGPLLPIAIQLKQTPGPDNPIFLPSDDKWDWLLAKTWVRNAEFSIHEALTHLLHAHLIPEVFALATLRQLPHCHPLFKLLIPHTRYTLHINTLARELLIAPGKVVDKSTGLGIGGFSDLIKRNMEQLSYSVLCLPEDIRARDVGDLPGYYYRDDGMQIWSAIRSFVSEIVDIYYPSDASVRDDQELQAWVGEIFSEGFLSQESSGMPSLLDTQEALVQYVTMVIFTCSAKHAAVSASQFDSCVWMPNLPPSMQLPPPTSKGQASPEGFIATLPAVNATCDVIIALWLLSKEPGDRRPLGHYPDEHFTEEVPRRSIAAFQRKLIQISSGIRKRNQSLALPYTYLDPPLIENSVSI
The experiment in a line: co-IP; 100 ug PASMC lysate incubated with 2 ug mouse monoclonal 15-LO-2 antibody, then Protein A/G-Sepharose beads; immunoblot with rabbit anti-TERT; mouse IgG as negative control, 5% input.

These are yes or no findings as the source states them, for the method shown. In cells and extracts the contact can be indirect. Some results given as binding are weak or reduced against the parent protein; the word gives no strength.

For “Telomerase reverse transcriptase (from UniProt Q673L6-1 1-1125)”, the binding result is “binds”.
